Data as given in PubChem BioAssay AID1508597 (Cure First, 2020).

Screen: 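Knock-downs altering ovarian cancer cell survival with or without PARP inhibitor rucaparib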 (primary screen)
Cells: human ovarian carcinoma lines grown from tumours: OCI-P5x (papillary serous) and OCI-C5x (clear cell)
Knock-down reagent: siRNA pool against human genes, 1.25 pmol siRNA per well
Timing: 72 h or 96 h, depending on the cell culture
Treatment: rucaparib 20 µM (about IC30) or vehicle, present until read-out
Rucaparib or vehicle: Vehicle
Cell line: OCI-P5x (serous)
Measured: 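Luminescent ATP-based viability assay read 72 or 96 h after transfection, depending on culture, given as normalised percent viability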
Scale: viability, normalised: higher = more viable cells remaining
Hit rule: 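a well counts as a hit if its normalised viability is under 80 percent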
Meaning of the calls: active = viability under 80%; inactive = viability 80% or more
Shown is a random part of the about 2,100 reagents, in one setting of the screen. 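Calls flag viability under 80% in either arm, not effects specific to rucaparib; the reference for percent is not stated.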 Not stated in the record: the 100% reference.

CHKA (choline kinase alpha), technical replicate 1 — viability, normalised (%): 72.4; Call: active
CHKA (choline kinase alpha), technical replicate 2 — viability, normalised (%): 84.8; Call: inactive
CHKA (choline kinase alpha), technical replicate 3 — viability, normalised (%): 45.7; Call: active
TAOK3 (TAO kinase 3), technical replicate 1 — viability, normalised (%): 74.8; Call: active
TAOK3 (TAO kinase 3), technical replicate 2 — viability, normalised (%): 73.1; Call: active
TAOK3 (TAO kinase 3), technical replicate 3 — viability, normalised (%): 92.9; Call: inactive
TSSK3 (testis specific serine kinase 3), technical replicate 1 — viability, normalised (%): 96.9; Call: inactive
TSSK3 (testis specific serine kinase 3), technical replicate 2 — viability, normalised (%): 107; Call: inactive
TSSK3 (testis specific serine kinase 3), technical replicate 3 — viability, normalised (%): 114; Call: inactive
PCDHB3 (protocadherin beta 3), technical replicate 1 — viability, normalised (%): 53.1; Call: active
PCDHB3 (protocadherin beta 3), technical replicate 2 — viability, normalised (%): 62.6; Call: active
PCDHB3 (protocadherin beta 3), technical replicate 3 — viability, normalised (%): 76; Call: active
SPOCK2, technical replicate 1 — viability, normalised (%): 58.3; Call: active
SPOCK2, technical replicate 2 — viability, normalised (%): 51.7; Call: active
SPOCK2, technical replicate 3 — viability, normalised (%): 72.1; Call: active
EIF2AK3 (eukaryotic translation initiation factor 2 alpha kinase 3), technical replicate 1 — viability, normalised (%): 74.1; Call: active
EIF2AK3 (eukaryotic translation initiation factor 2 alpha kinase 3), technical replicate 2 — viability, normalised (%): 64.3; Call: active
EIF2AK3 (eukaryotic translation initiation factor 2 alpha kinase 3), technical replicate 3 — viability, normalised (%): 72.2; Call: active
RERE (arginine-glutamic acid dipeptide repeats), technical replicate 1 — viability, normalised (%): 63.8; Call: active
RERE (arginine-glutamic acid dipeptide repeats), technical replicate 2 — viability, normalised (%): 64.3; Call: active
RERE (arginine-glutamic acid dipeptide repeats), technical replicate 3 — viability, normalised (%): 67; Call: active
